In publication PMC11399425, “Tricyclic and tetracyclic antidepressants upregulate VMAT2 activity and rescue disease-causing VMAT2 variants” (Neuropsychopharmacology, 2024) one finds EC50 and IC50 data, which are given here for 2 compounds.

In general, EC50 refers to the concentration that produces a half-maximal response. As a reminder, the IC50 is the point on the concentration scale where inhibition reaches its midpoint.

Assay [1] concerns the target T1, VMAT2 (Mus musculus, UniProt Q8BRU6). In words: FFN206 uptake upregulation assay (18-h treatment, washout) in HEK-VMAT2 cells. The assay is classed as cell-based. More on the design: The full-length mouse and human SLC18A2 cDNAs encoding VMAT2 were cloned into pcDNA3.1 vectors; expressed in transfected cells. The note with it: 18 h treatment followed by washout, read-out: EC50 (95% CI), VMAT2 upregulation.

Assay [2] addresses T1, VMAT2. The experiment in a line: FFN206 uptake inhibition assay (30-min treatment) in HEK-VMAT2 cells.

Take `CN(C)CCC=C1c2ccccc2COc2ccccc21` [DOX, Doxepin]: the EC50 on VMAT2 [1] is 42.4 µM. Also, the IC50 on VMAT2 [2] is 30.5 µM.

With `Clc1ccc2c(c1)C(N1CCNCC1)=Nc1ccccc1O2` [AMO, Amoxapine], the EC50 at VMAT2 [1] came out at 18.5 µM. This compound displayed an IC50 at VMAT2 [2] of 7.79 µM.
